Measurements from “University of Dundee, Small-Polar-MMV Screening Library” (2021), ChEMBL document CHEMBL3988442.

The filed quantity is “Percent Effect” (%). How 0% and 100% were set is not recorded. Most values in the screen are low, and negative values occur. This is an unselected part of the compounds tested.

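Assay on Mycobacterium tuberculosis, filed only as a heat shock assay from Cornell; the read-out is not stated. The concentration is filed as 10 mM, unlikely as a test dose, so the dose is not known. Direction is inferred from retests: higher values go with stronger inhibition. About 69,000 compounds were tested under these conditions; 1.4% (about 930) showed 50% or more at least once.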

compound	percent effect
COCCC(=O)N1C[C@@H](c2cccc(OC)c2)[C@@]2(CCCCC(=O)N2)C1	4.844%
CNc1nc(C2CCN(C(=O)CC3CCCC3)C2)nc2c1CN(C)CC2 (stereo unspecified)	0.09467%
Cc1nn(-c2ccc(F)cc2)c2[nH]nc(N)c12	-26.67%
O=C(O)c1ccnc(SCC(=O)c2ccccc2)c1	17.09%
Cc1ccnc(C2CCCN2C(=O)CN(C)C)n1 (stereo unspecified)	1.842%
COCCN(C)C(=O)Nc1ccc2c(ccn2CCOC)c1	-5.953%
Cc1cc(=O)c(C(=O)N2CCC(C(O)Cc3ccccc3)CC2)c(C)[nH]1 (stereo unspecified)	12.42%
Cc1ccc(S(=O)(=O)N2CCOCC2C#N)cc1Br (stereo unspecified)	-36.05%
CCc1nc(CCNS(=O)(=O)c2cccc(C(=O)N(C)CC)c2)cs1	-30.55%
CC(NC(=O)NCCNc1cnccn1)c1cccs1 (stereo unspecified)	4%
CC(C)(C)n1cc(CNc2ccc(CNS(C)(=O)=O)cc2)cn1	-7.062%
CSC(C)Cc1c(-c2ccccc2)ncn1CCCNc1cccnc1 (stereo unspecified)	11.5%
Cc1cnn(CC2CCCN2C(=O)c2cccc(CC#N)c2)c1 (stereo unspecified)	-4.294%
O=C(COc1ccccc1Br)N1CCOc2ccncc21	-16.71%
Cc1ccc2oc(=O)n(CCC(=O)N3CCC4(CN(C)C(=O)O4)C3)c2c1 (stereo unspecified)	10.67%
COCCC1(CNC(=O)NCC2CN(C)CCN2C)CCC1 (stereo unspecified)	11.78%
[H][C@@]12COC[C@]1(CNS(C)(=O)=O)CN(C(=O)c1ccoc1)C2	0.02122%
CSCCC(C)(O)CNC(=O)Nc1ccccc1C (stereo unspecified)	6.567%
[H][C@]12C[C@H](NC(=O)c3ccnn3C)[C@@]1([H])CN(S(=O)(=O)c1ccc(C)cc1)C2	6.935%
CC(C)n1nc2c(cc1=O)CN(Cc1nc(-c3ccco3)no1)CC2	2.943%
CC(C)NC(=O)c1nnc2ccc(N3CCOCC3)cc2n1	-14.6%
O=C(NCc1ccc(Br)c(F)c1)Nc1cn[nH]c1	-20.89%
CCOCCn1c(=O)[nH]c2cc(C(=O)N(C)Cc3ccno3)ccc21	5.854%
CCc1nccn1C1CCCN(C(=O)c2cc[nH]n2)C1 (stereo unspecified)	-36.97%
Cc1noc(C)c1CN(C)Cc1cnc(N2CCOCC2)nc1	-6.428%
CCN(CC)C(=O)c1cc(Br)cc(S(=O)(=O)N2CCOCC2)c1F	4.91%
O=C(O)C(F)(F)F.O=C(O)C(F)(F)F.[H][C@@]12CN(CC3CC3)C[C@]1([H])OCCN2Cc1c(C)noc1C	0.8104%
Cc1csc(CNc2nc3c(s2)c(C)nn3C)n1	15.79%
[H][C@@]12CCN(C[C@@H]1CC)[C@@H](CNC(=O)Nc1cc(OC)cc(OC)c1)C2	76.55%
CN(C)CCOC1CC2(CCN(c3cnccn3)CC2)c2ccccc21.O=C(O)C(F)(F)F (stereo unspecified)	-11.75%
Cc1cc(C(=O)N2CCN[C@H](C)C2)c2ccc(F)cc2n1	-15.24%
[H][C@@]12CCN(C(=O)CCc3ccc(OCC)cc3)C[C@]1([H])OCCNC2=O	-4.503%
O=C(NC(Cc1ccsc1)c1nccs1)C1CCOCC1 (stereo unspecified)	-2.835%
CCn1ccnc1CN1CCN(CC(O)c2ccc(OC)cc2)CC1 (stereo unspecified)	21.09%
O=C(O)C(c1cccc2c1OCC2)N1CCC(N2CCCC2)CC1 (stereo unspecified)	-26.25%
COCC1CCN(CCCc2cn[nH]c2)CC1	-42.13%
CSCCC(Nc1nc(C)cc(C)n1)C(=O)NC1CCCC1 (stereo unspecified)	3.926%
Cc1cnc(C(=O)NCC2Cc3ccccc3O2)cn1 (stereo unspecified)	35.41%
O=C(NCc1cc2n(n1)CCCNC2)C1(c2ccccc2)CCCCC1	-21.39%
Cc1ccc2c(c1)SCC(=O)N2CC(=O)N1CCCC1c1cc(C)on1 (stereo unspecified)	3.662%
O=C(O)C(F)(F)F.O=C(O)C(F)(F)F.[H][C@@]12CN(Cc3cccs3)C[C@]1([H])C(=O)N(CCN1CCCC1)C2	-16.55%
Cc1nn(C)c(N(C)C)c1CNCC(O)COc1ccc(F)cc1 (stereo unspecified)	2.131%
CCN(Cc1nc2c(cnn2C)c(=O)[nH]1)Cc1cccs1	2.895%
CO[C@H]1CCN(Cc2ccoc2)C[C@@H]1Cc1ccccc1.O=C(O)C(F)(F)F	-12.64%
CC(=O)Nc1ccc(-c2ccccc2NC(=O)CN)cc1	-3.687%
NCC1(c2cccc(C(F)(F)F)c2)CC1	-16.94%
CNc1nc2c(s1)C(c1c(F)cccc1Cl)CC(=O)N2 (stereo unspecified)	10.26%
Cc1cn2c(n1)CCC(NC(=O)c1ccc(OCC3CC3)nc1)C2 (stereo unspecified)	8.849%
O=C(c1ccncc1)N1CCC(O)(Cn2ccc3ccncc32)CC1	-21.25%
O=C(O)C(F)(F)F.O=C(O)C(F)(F)F.[H][C@]12CCC[C@@]1(COc1ccccn1)CN(c1ncc(F)cn1)C2	7.321%
Cn1ccc(C(=O)N2CCC(Cc3cnc4[nH]ccc4c3)C2)n1 (stereo unspecified)	-5.599%
[H][C@]12CC[C@]([H])(CN(CC(=O)N(C)C)C1)N(C(=O)CCn1cncn1)C2	9.46%
Cn1cc(N2CCN(c3ccc(C#N)c(Cl)c3)CC2=O)cn1	-106.6%
CC(NC(=O)c1cnccn1)c1nnc2ccccn12 (stereo unspecified)	25.1%
CCOCC(=O)NCCCn1ccnc1-c1ccccc1	0.7963%
COC(=O)c1ccc(N2CCN(C(=O)c3ccn(C)c(=O)c3)CC2)cc1	-13.55%
O=C(c1ccc(Oc2cccnc2)cc1)N1CCN(CCO)CC1	7.364%
Cc1nc(-c2ccccc2)n(CC(=O)N(C(C)C)C(C)C)n1	3.195%
CCS(=O)(=O)c1ncc(CN(C)Cc2cccc(OC)c2)n1CCOC	-18.18%
O=c1[nH]c(N2CCCCC2)nc2nccc(-c3ccc4c(c3)OCO4)c12	5.961%
COCCOCC(=O)NC(C#N)c1ccccc1C (stereo unspecified)	9.675%
CC(=O)N(Cc1ncc(C)o1)C1CCN(Cc2nnc(C3CC3)o2)C1 (stereo unspecified)	-17.22%
Cc1cccc2c1NC(c1cnc(C3CCC3)s1)NC2=O (stereo unspecified)	14.99%
Cc1ccccc1N1CCN(C(=O)c2cnn(C(C)C)c2)C(C)C1 (stereo unspecified)	0.5657%
Cn1ccc(NC(=O)Cc2cccc(F)c2)n1	-15.07%
N#Cc1ccc(CNC(=O)NCCNC(=O)C2CCCC2)c(F)c1	-20.46%
[H][C@@]12CN(Cc3ccoc3)CCO[C@]1([H])CN(C(=O)CS(C)(=O)=O)C2	-0.05269%
[H][C@@]12CN(C(=O)c3cscn3)C[C@@]1([H])N(CC1CCCC1)C(=O)CO2	-20.44%
Cc1nn(-c2ncnc3[nH]cnc23)c2c1C(CC(C)C)CC(=O)N2 (stereo unspecified)	13.23%
CC(=O)NC(C)c1ccc(OCC2CC2)c(F)c1 (stereo unspecified)	8.926%
CC(C)(C)NC(=O)NC(=O)CN1C=Nc2ccccc2S1(=O)=O	-6.538%
CCn1cc(-c2n[nH]c(=O)n2-c2ccc(OC)c(OC)c2)c(C)n1	4.959%
CC(Cn1cccn1)NCCS(=O)(=O)c1ccccc1 (stereo unspecified)	-23.28%
CC(=O)NCCNC(=O)CN1CCCC1c1c(C)nn(C)c1C (stereo unspecified)	-8.104%
Cc1ccsc1C(Cn1ccnc1-c1ccccc1C(=O)O)N(C)C (stereo unspecified)	-38.05%
CNC(=O)c1cc2c(nc1NC(C)C)CCN(C(=O)NC(C)C)CC2	-19.32%
CCC(Nc1nc(C2CCCC2)nc2c1cnn2C)c1ccncc1 (stereo unspecified)	3.086%

For reference, 7 entries once more:

compound	percent effect
CCn1ccnc1CN1CCN(CC(O)c2ccc(OC)cc2)CC1 (stereo unspecified)	21.09%
CC(C)(C)n1cc(CNc2ccc(CNS(C)(=O)=O)cc2)cn1	-7.062%
Cn1cc(N2CCN(c3ccc(C#N)c(Cl)c3)CC2=O)cn1	-106.6%
CC(Cn1cccn1)NCCS(=O)(=O)c1ccccc1 (stereo unspecified)	-23.28%
[H][C@@]12COC[C@]1(CNS(C)(=O)=O)CN(C(=O)c1ccoc1)C2	0.02122%
O=c1[nH]c(N2CCCCC2)nc2nccc(-c3ccc4c(c3)OCO4)c12	5.961%
[H][C@@]12CCN(C[C@@H]1CC)[C@@H](CNC(=O)Nc1cc(OC)cc(OC)c1)C2	76.55%